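Selective DUX4 reporter inhibition in doxycycline-induced 293T-iDUX4 cells, scored as Gaussia percent activity minus Italica percent activity, after a 24-hour treatment. The test concentration is not given here. Percent difference between the Gaussia and Italica channels; more negative values mean more selective suppression of the DUX4 reporter, and higher values mean less activity.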

Values are in %. How 0% and 100% were set is not given here. Common to all entries: measured here: selective DUX4 reporter inhibition. Part of the compounds only, not a random draw; the main read-out is not listed here.

O=C1CN(S(=O)(=O)Cc2ccccc2)C[C@@H]2[C@@H](c3ccc(C#CCC4CCCC4)cc3)[C@H](CO)N12 read Gaussia minus Italica difference -3.493%. COc1ccccc1-c1ccc([C@@H]2[C@H](CO)N3CCCCN(Cc4ccncc4)C[C@@H]23)cc1 gave Gaussia minus Italica difference -7.98%. Result for COc1ccc2c3c(n(C)c2c1)[C@@H](CO)N(Cc1cccc(Cl)c1)CC31CCN(C(=O)C2CC2)CC1 was Gaussia minus Italica difference 3.157%. COc1ccccc1S(=O)(=O)N1CC[C@@H]2[C@@H](CO)Nc3ccc(-c4ccccc4F)cc3[C@@H]21 read Gaussia minus Italica difference 5.392%.

COC(=O)[C@@H]1[C@@H](CO)[C@@H]2Cn3c(ccc(C4=CCCCC4)c3=O)[C@H]1N2CCc1ccccc1 read Gaussia minus Italica difference -17.47%. Result for COc1cccc(-c2ccc3n(c2=O)C[C@@H]2[C@@H](CO)[C@H](C(=O)NC4Cc5ccccc5C4)N[C@H]32)c1 was Gaussia minus Italica difference -3.213%. For CCCNC(=O)N1CC(=O)N2[C@H](C1)[C@@H](c1ccc(C#Cc3cccc(OC)c3)cc1)[C@@H]2CO the result was Gaussia minus Italica difference 5.672%. Result for CO[C@H]1CN(C)C(=O)c2cc(NC(=O)C3CC3)ccc2OC[C@H](C)N(Cc2cc(F)ccc2F)C[C@@H]1C was Gaussia minus Italica difference -6.431%.

N#Cc1ccc(-c2ccc([C@@H]3[C@H]4CN(C(=O)Nc5ccc(F)cc5)CCCCN4[C@H]3CO)cc2)cc1 gave Gaussia minus Italica difference -24.08%. COCC(=O)Nc1ccc2c(c1)[C@@H]1C[C@@H](CC(=O)NCc3ccc(-c4ccccc4)cc3)O[C@@H](CO)[C@@H]1O2 gave Gaussia minus Italica difference -22.29%. COc1ccccc1CN1CC[C@@H]2[C@H]1c1cc(-c3cccc(C(=O)N(C)C)c3)ccc1N[C@@H]2CO read Gaussia minus Italica difference -5.07%. For O=C(C[C@H]1CC[C@H]2[C@@H](COC[C@@H](O)CN2Cc2ccc(C(F)(F)F)cc2)O1)N1CCc2ccccc2C1 the result was Gaussia minus Italica difference -2.21%.

O=S(=O)(c1ccccc1)N1CCCCN2[C@H](CO)[C@@H](c3ccc(-c4ccccc4F)cc3)[C@@H]2C1 gave Gaussia minus Italica difference -10.43%. Result for COc1cccc(-c2ccc3c(c2)[C@H]2[C@H](CCN2S(=O)(=O)c2ccccc2F)[C@H](CO)N3)c1 was Gaussia minus Italica difference 6.116%. COc1ccc(-c2ccc3c(c2)[C@H]2[C@H](CCN2C(=O)c2ccc4c(c2)OCO4)[C@H](CO)N3C)cc1 gave Gaussia minus Italica difference 4.112%. COc1ccc2c3c(n(C)c2c1)[C@@H](CO)N(Cc1ccccc1)CC31CN(CC2CC2)C1 gave Gaussia minus Italica difference -12.15%.

Cc1cccc(-c2ccc(C3[C@@H]4CN(Cc5ccccc5)C[C@H]3N4)cc2)c1 (some centres not stated) gave Gaussia minus Italica difference -19.52%. For CCc1sc(N2[C@@H](C#N)[C@@H](c3ccccc3-c3ccc(F)cc3)[C@@H]2CO)nc1C the result was Gaussia minus Italica difference -11.26%. With CO[C@H]1CN(C)C(=O)c2ccc(NC(=O)Nc3ccc(C(F)(F)F)cc3)cc2OC[C@H](C)NC[C@H]1C the assay gave Gaussia minus Italica difference 12.82%. O=C(C[C@H]1CC[C@@H]2[C@H](COC[C@H](O)CN2C(=O)Nc2ccc(Cl)c(Cl)c2)O1)NCc1ccc(Cl)c(Cl)c1 read Gaussia minus Italica difference -0.4668%.

Result for C[C@@H]1CN([C@H](C)CO)C(=O)c2c(c3ccccc3n2C)-c2ccccc2CO[C@H]1CN(C)S(=O)(=O)c1cccc(F)c1 was Gaussia minus Italica difference -20.22%. COc1ccccc1S(=O)(=O)N(C)C[C@H]1OCc2ccccc2-c2c(n(C)c3ccccc23)C(=O)N([C@H](C)CO)C[C@H]1C gave Gaussia minus Italica difference 14.69%. For C[C@H](CO)N1C[C@H](C)[C@@H](CN(C)Cc2ccc(-c3ccccc3)cc2)OCc2cnnn2CCCC1=O the result was Gaussia minus Italica difference -5.394%. With O=C(Cc1ccccc1)N1CC2(C1)[C@H](c1ccccc1)[C@@H](CO)N2Cc1cccc(Cl)c1 the assay gave Gaussia minus Italica difference -17.46%.

The first 2 entries again:

- O=C1CN(S(=O)(=O)Cc2ccccc2)C[C@@H]2[C@@H](c3ccc(C#CCC4CCCC4)cc3)[C@H](CO)N12 | Gaussia minus Italica difference -3.493%
- COc1ccccc1-c1ccc([C@@H]2[C@H](CO)N3CCCCN(Cc4ccncc4)C[C@@H]23)cc1 | Gaussia minus Italica difference -7.98%

From PubChem BioAssay record AID1224904 (Broad Institute, 2016).